Experimental data taken from the supplement of paper PMC8728848.
The list shows a part of the results.

Assays:
Assay in all cases: glycan array binding signal (z-score within array); higher = stronger binding
Conditions in all cases: glycan notation: IUPAC condensed, linker removed
[1] = target: Gal(b1-4)GlcNAc(b1-2)[Gal(b1-4)GlcNAc(b1-6)]Man(a1-6)[Gal(b1-4)GlcNAc(b1-2)Man(a1-3)]Man(b1-4)GlcNAc(b1-4)[Fuc(a1-6)]GlcNAc
Method in brief: (§1)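 The binding signal is a Z-score computed within each array and averaged over linkers. Arrays of the same protein sequence at different concentrations or buffers were also averaged together. Data originate from 3228 arrays in the Consortium for Functional Glycomics database, kept only where the protein sequence was available.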

[2] = target: Gal(b1-4)GlcNAc(b1-2)[Gal(b1-4)GlcNAc(b1-6)]Man(a1-6)[GlcNAc(b1-4)][Gal(b1-4)GlcNAc(b1-2)Man(a1-3)]Man(b1-4)GlcNAc(b1-4)GlcNAc
Method in brief: as §1

[3] = target: Gal(b1-4)GlcNAc(b1-2)[Gal(b1-4)GlcNAc(b1-6)]Man(a1-6)[GlcNAc(b1-4)][Gal(b1-4)GlcNAc(b1-2)[Gal(b1-4)GlcNAc(b1-4)]Man(a1-3)]Man(b1-4)GlcNAc(b1-4)[Fuc(a1-6)]GlcNAc
Method in brief: as §1

[4] = target: Gal(b1-4)GlcNAc(b1-3)Gal(b1-3)GalNAc
Method in brief: as §1

[5] = target: Gal(b1-4)GlcNAc(b1-3)Gal(b1-3)GlcNAc
Method in brief: as §1

[6] = target: Gal(b1-4)GlcNAc(b1-3)Gal(b1-4)Glc
Method in brief: as §1

[7] = target: Gal(b1-4)GlcNAc(b1-3)Gal(b1-4)GlcNAc
Method in brief: as §1

[8] = target: Gal(b1-4)GlcNAc(b1-3)Gal(b1-4)GlcNAc(b1-2)Man(a1-3)[Gal(b1-4)GlcNAc(b1-3)Gal(b1-4)GlcNAc(b1-2)Man(a1-6)]Man(b1-4)GlcNAc(b1-4)GlcNAc
Method in brief: as §1

[9] = target: Gal(b1-4)GlcNAc(b1-3)Gal(b1-4)GlcNAc(b1-2)Man(a1-3)[Gal(b1-4)GlcNAc(b1-3)Gal(b1-4)GlcNAc(b1-2)Man(a1-6)]Man(b1-4)GlcNAc(b1-4)[Fuc(a1-6)]GlcNAc
Method in brief: as §1

[10] = target: Gal(b1-4)GlcNAc(b1-3)Gal(b1-4)GlcNAc(b1-2)[Gal(b1-4)GlcNAc(b1-3)Gal(b1-4)GlcNAc(b1-6)]Man(a1-6)[Gal(b1-4)GlcNAc(b1-3)Gal(b1-4)GlcNAc(b1-2)Man(a1-3)]Man(b1-4)GlcNAc(b1-4)GlcNAc
Method in brief: as §1

[11] = target: Gal(b1-4)GlcNAc(b1-3)Gal(b1-4)GlcNAc(b1-2)[Gal(b1-4)GlcNAc(b1-3)Gal(b1-4)GlcNAc(b1-6)]Man(a1-6)[Gal(b1-4)GlcNAc(b1-3)Gal(b1-4)GlcNAc(b1-2)Man(a1-3)]Man(b1-4)GlcNAc(b1-4)[Fuc(a1-6)]GlcNAc
Method in brief: as §1

[12] = target: Gal(b1-4)GlcNAc(b1-3)Gal(b1-4)GlcNAc(b1-3)Gal(b1-4)GlcNAc
Method in brief: as §1

[13] = target: Gal(b1-4)GlcNAc(b1-3)Gal(b1-4)GlcNAc(b1-3)Gal(b1-4)GlcNAc(b1-2)Man(a1-3)[Gal(b1-4)GlcNAc(b1-3)Gal(b1-4)GlcNAc(b1-3)Gal(b1-4)GlcNAc(b1-2)Man(a1-6)]Man(b1-4)GlcNAc(b1-4)GlcNAc
Method in brief: as §1

[14] = target: Gal(b1-4)GlcNAc(b1-3)Gal(b1-4)GlcNAc(b1-3)Gal(b1-4)GlcNAc(b1-2)Man(a1-3)[Gal(b1-4)GlcNAc(b1-3)Gal(b1-4)GlcNAc(b1-3)Gal(b1-4)GlcNAc(b1-2)Man(a1-6)]Man(b1-4)GlcNAc(b1-4)[Fuc(a1-6)]GlcNAc
Method in brief: as §1

[15] = target: Gal(b1-4)GlcNAc(b1-3)Gal(b1-4)GlcNAc(b1-3)Gal(b1-4)GlcNAc(b1-2)[Gal(b1-4)GlcNAc(b1-3)Gal(b1-4)GlcNAc(b1-3)Gal(b1-4)GlcNAc(b1-6)]Man(a1-6)[Gal(b1-4)GlcNAc(b1-3)Gal(b1-4)GlcNAc(b1-3)Gal(b1-4)GlcNAc(b1-2)Man(a1-3)]Man(b1-4)GlcNAc(b1-4)[Fuc(a1-6)]GlcNAc
Method in brief: as §1

[16] = target: Gal(b1-4)GlcNAc(b1-3)Gal(b1-4)GlcNAc(b1-3)Gal(b1-4)GlcNAc(b1-3)Gal(b1-4)GlcNAc(b1-2)Man(a1-3)[Gal(b1-4)GlcNAc(b1-3)Gal(b1-4)GlcNAc(b1-3)Gal(b1-4)GlcNAc(b1-3)Gal(b1-4)GlcNAc(b1-2)Man(a1-6)]Man(b1-4)GlcNAc(b1-4)GlcNAc
Method in brief: as §1

[17] = target: Gal(b1-4)GlcNAc(b1-3)Gal(b1-4)GlcNAc(b1-3)Gal(b1-4)GlcNAc(b1-3)Gal(b1-4)GlcNAc(b1-2)Man(a1-3)[Gal(b1-4)GlcNAc(b1-3)Gal(b1-4)GlcNAc(b1-3)Gal(b1-4)GlcNAc(b1-3)Gal(b1-4)GlcNAc(b1-2)Man(a1-6)]Man(b1-4)GlcNAc(b1-4)[Fuc(a1-6)]GlcNAc
Method in brief: as §1

[18] = target: Gal(b1-4)GlcNAc(b1-3)Gal(b1-4)GlcNAc(b1-3)Gal(b1-4)GlcNAc(b1-3)Gal(b1-4)GlcNAc(b1-2)[Gal(b1-4)GlcNAc(b1-3)Gal(b1-4)GlcNAc(b1-3)Gal(b1-4)GlcNAc(b1-3)Gal(b1-4)GlcNAc(b1-6)]Man(a1-6)[Gal(b1-4)GlcNAc(b1-3)Gal(b1-4)GlcNAc(b1-3)Gal(b1-4)GlcNAc(b1-3)Gal(b1-4)GlcNAc(b1-2)Man(a1-3)]Man(b1-4)GlcNAc(b1-4)[Fuc(a1-6)]GlcNAc
Method in brief: as §1

[19] = target: Gal(b1-4)GlcNAc(b1-3)Gal(b1-4)GlcNAc(b1-3)Gal(b1-4)GlcNAc(b1-3)Gal(b1-4)GlcNAc(b1-3)Gal(b1-4)GlcNAc(b1-2)Man(a1-3)[Gal(b1-4)GlcNAc(b1-3)Gal(b1-4)GlcNAc(b1-3)Gal(b1-4)GlcNAc(b1-3)Gal(b1-4)GlcNAc(b1-3)Gal(b1-4)GlcNAc(b1-2)Man(a1-6)]Man(b1-4)GlcNAc(b1-4)GlcNAc
Method in brief: as §1

[20] = target: Gal(b1-4)GlcNAc(b1-3)Gal(b1-4)GlcNAc(b1-3)Gal(b1-4)GlcNAc(b1-3)Gal(b1-4)GlcNAc(b1-3)Gal(b1-4)GlcNAc(b1-2)Man(a1-3)[Gal(b1-4)GlcNAc(b1-3)Gal(b1-4)GlcNAc(b1-3)Gal(b1-4)GlcNAc(b1-3)Gal(b1-4)GlcNAc(b1-3)Gal(b1-4)GlcNAc(b1-2)Man(a1-6)]Man(b1-4)GlcNAc(b1-4)[Fuc(a1-6)]GlcNAc
Method in brief: as §1

[21] = target: Gal(b1-4)GlcNAc(b1-3)Gal(b1-4)GlcNAc(b1-3)Gal(b1-4)GlcNAc(b1-3)Gal(b1-4)GlcNAc(b1-3)Gal(b1-4)GlcNAc(b1-2)[Gal(b1-4)GlcNAc(b1-3)Gal(b1-4)GlcNAc(b1-3)Gal(b1-4)GlcNAc(b1-3)Gal(b1-4)GlcNAc(b1-3)Gal(b1-4)GlcNAc(b1-6)]Man(a1-6)[Gal(b1-4)GlcNAc(b1-3)Gal(b1-4)GlcNAc(b1-3)Gal(b1-4)GlcNAc(b1-3)Gal(b1-4)GlcNAc(b1-3)Gal(b1-4)GlcNAc(b1-2)Man(a1-3)]Man(b1-4)GlcNAc(b1-4)[Fuc(a1-6)]GlcNAc
Method in brief: as §1

[22] = target: Gal(b1-4)GlcNAc(b1-3)Gal(b1-4)GlcNAc(b1-3)Gal(b1-4)GlcNAc(b1-3)Gal(b1-4)GlcNAc(b1-3)Gal(b1-4)GlcNAc(b1-3)Gal(b1-4)GlcNAc(b1-2)Man(a1-3)[Gal(b1-4)GlcNAc(b1-3)Gal(b1-4)GlcNAc(b1-3)Gal(b1-4)GlcNAc(b1-3)Gal(b1-4)GlcNAc(b1-3)Gal(b1-4)GlcNAc(b1-3)Gal(b1-4)GlcNAc(b1-2)Man(a1-6)]Man(b1-4)GlcNAc(b1-4)GlcNAc
Method in brief: as §1

[23] = target: Gal(b1-4)GlcNAc(b1-3)Gal(b1-4)GlcNAc(b1-3)GalNAc
Method in brief: as §1

[24] = target: Gal(b1-4)GlcNAc(b1-3)Gal(b1-4)GlcNAc(b1-3)[Gal(b1-4)GlcNAc(b1-3)Gal(b1-4)GlcNAc(b1-6)]GalNAc
Method in brief: as §1

[25] = target: Gal(b1-4)GlcNAc(b1-3)Gal(b1-4)GlcNAc(b1-6)[Gal(b1-3)]GalNAc
Method in brief: as §1

[26] = target: Gal(b1-4)GlcNAc(b1-3)Gal(b1-4)[Fuc(a1-3)]GlcNAc(b1-3)Gal(b1-4)[Fuc(a1-3)]GlcNAc
Method in brief: as §1

[27] = target: Gal(b1-4)GlcNAc(b1-3)GalNAc
Method in brief: as §1

[28] = target: Gal(b1-4)GlcNAc(b1-3)[Fuc(a1-3)GlcNAc(b1-6)]Gal(b1-4)Glc
Method in brief: as §1

[29] = target: Gal(b1-4)GlcNAc(b1-3)[Gal(b1-4)GlcNAc(b1-6)]Gal(b1-4)GlcNAc
Method in brief: as §1

[30] = target: Gal(b1-4)GlcNAc(b1-3)[GlcNAc(b1-6)]Gal(b1-4)GlcNAc
Method in brief: as §1

[31] = target: Gal(b1-4)GlcNAc(b1-6)Gal(b1-4)GlcNAc
Method in brief: as §1

[32] = target: Gal(b1-4)GlcNAc(b1-6)GalNAc
Method in brief: as §1

[33] = target: Gal(b1-4)GlcNAc(b1-6)[Gal(b1-3)]GalNAc
Method in brief: as §1

[34] = target: Gal(b1-4)GlcNAc(b1-6)[Gal(b1-4)GlcNAc(b1-3)]GalNAc
Method in brief: as §1

[35] = target: Gal(b1-4)GlcNAc6P
Method in brief: as §1

[36] = target: Gal(b1-6)Gal
Method in brief: as §1

[37] = target: Gal3S(b1-3)GalNAc
Method in brief: as §1

[38] = target: Gal3S(b1-3)GlcNAc
Method in brief: as §1

B1: Epa11 (Candida glabrata) (protein)
chain: MGSSHHHHHHSSGLVPRGSHMASSNAPNYPVGCSPSVGTQLTPGLSLEVYAYPMDGNNGYCWNATYKDPEFPRSGYLKNKLLGKADGVVGPLNFLAKNKDCSPKVDTLPAGFNFPQPITVTNFTMVLFGYLAPKQSGKYTFKLLADDLLLLNLGATNAFDCCNREATKNNLGEFLAYNLWPNQDKNVTVYLEKGVYYPLRLFFNNRDGGSQLDFSYYFNDSPAPLTDFSGMFFSVPDGAECPARI
[1]
  glycan array binding signal (z-score): -0.479
[2]
  glycan array binding signal (z-score): -0.232
[3]
  glycan array binding signal (z-score): -0.621
[4]
  glycan array binding signal (z-score): -0.415
[5]
  glycan array binding signal (z-score): -0.054
[6]
  glycan array binding signal (z-score): -0.135
[7]
  glycan array binding signal (z-score): -0.343
[8]
  glycan array binding signal (z-score): 1.27
[9]
  glycan array binding signal (z-score): 0.331
[10]
  glycan array binding signal (z-score): 0.748
[11]
  glycan array binding signal (z-score): 1.98
[12]
  glycan array binding signal (z-score): -0.199
[13]
  glycan array binding signal (z-score): 2.67
[14]
  glycan array binding signal (z-score): 0.054
[15]
  glycan array binding signal (z-score): 1.94
[16]
  glycan array binding signal (z-score): -0.077
[17]
  glycan array binding signal (z-score): 0.911
[18]
  glycan array binding signal (z-score): 0.458
[19]
  glycan array binding signal (z-score): 0.572
[20]
  glycan array binding signal (z-score): -0.755
[21]
  glycan array binding signal (z-score): -0.485
[22]
  glycan array binding signal (z-score): 0.763
[23]
  glycan array binding signal (z-score): 1.23
[24]
  glycan array binding signal (z-score): 1.08
[25]
  glycan array binding signal (z-score): 1.77
[26]
  glycan array binding signal (z-score): -0.291
[27]
  glycan array binding signal (z-score): -0.351
[28]
  glycan array binding signal (z-score): 0.044
[29]
  glycan array binding signal (z-score): -0.256
[30]
  glycan array binding signal (z-score): -0.836
[31]
  glycan array binding signal (z-score): -0.439
[32]
  glycan array binding signal (z-score): -0.046
[33]
  glycan array binding signal (z-score): -0.438
[34]
  glycan array binding signal (z-score): -0.445
[35]
  glycan array binding signal (z-score): 0.14
[36]
  glycan array binding signal (z-score): -0.473
[37]
  glycan array binding signal (z-score): 0.337
[38]
  glycan array binding signal (z-score): -0.01
